Article PMC9248092
No constants are given. Whether binding was seen depends on the method and setting. Binding seen in cells or lysates may run through a third protein. Some results given as binding are weak or reduced against the parent protein; the word gives no strength.

Experiments:
[1] = target: EGFR (human (endogenous in TW06)) (UniProt P00533); test: co-IP; endogenous proteins in TW06 cell lysate; IP with anti-EGFR, anti-leptin or control antibody for 16 h at 4 °C, then Protein A/G for 2 h at 4 °C; three washes with IP lysis buffer; Western blot for the other protein
[2] = target: leptin (human (endogenous in TW06)) (UniProt P41159); test: as above

Row | Substance | binding [1] | binding [2]
1 | leptin (from UniProt P41159 22-167) (ligand) | binds | –
2 | EGFR (from UniProt P00533 25-1210) (receptor) | – | binds
